Test results from the supplement of paper PMC12823440, “Inhibitors supercharge kinase turnover through native proteolytic circuits” (Nature, 2025).
Counter-ions that a name gives are not always drawn. The list shows a part of the results. The calls rarely recur for the same compound in another form.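 Kinases, fused to nanoluciferase, were expressed in K562 cells; luminescence was measured every 4 h from 2 to 18 h as percent of control (DMSO = 100%, positive control = 0%). A time point is decreased if signal falls significantly (2 sigma). Hits were called by the authors by a rule that is not shown; the count of time points alone does not decide it.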

Sequences of proteins named here, by UniProt entry; tags and fusion partners are left off. A change or cut given only in a name is not applied to a line headed by its entry.
UniProt Q9UBF8: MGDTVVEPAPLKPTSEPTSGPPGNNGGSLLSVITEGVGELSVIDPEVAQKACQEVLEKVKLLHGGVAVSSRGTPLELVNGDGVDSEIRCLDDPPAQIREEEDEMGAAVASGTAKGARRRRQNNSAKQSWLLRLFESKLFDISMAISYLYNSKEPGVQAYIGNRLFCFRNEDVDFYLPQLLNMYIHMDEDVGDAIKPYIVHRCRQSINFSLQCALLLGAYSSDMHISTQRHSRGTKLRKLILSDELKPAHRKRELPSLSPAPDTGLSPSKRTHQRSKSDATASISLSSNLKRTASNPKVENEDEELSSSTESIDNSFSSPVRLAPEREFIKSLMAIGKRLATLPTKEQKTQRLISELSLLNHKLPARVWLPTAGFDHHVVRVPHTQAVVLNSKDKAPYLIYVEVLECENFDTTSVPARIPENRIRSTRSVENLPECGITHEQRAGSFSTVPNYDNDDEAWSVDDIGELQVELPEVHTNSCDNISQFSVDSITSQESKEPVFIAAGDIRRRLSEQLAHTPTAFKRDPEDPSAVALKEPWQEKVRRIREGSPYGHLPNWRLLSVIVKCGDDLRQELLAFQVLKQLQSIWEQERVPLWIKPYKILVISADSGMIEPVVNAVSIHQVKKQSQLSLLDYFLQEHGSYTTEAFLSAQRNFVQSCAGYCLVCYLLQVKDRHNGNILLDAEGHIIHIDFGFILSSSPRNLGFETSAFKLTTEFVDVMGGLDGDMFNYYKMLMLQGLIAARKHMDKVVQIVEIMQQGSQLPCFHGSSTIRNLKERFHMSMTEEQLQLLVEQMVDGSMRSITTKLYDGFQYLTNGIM

target: PIK4CB (UniProt Q9UBF8); experiment: number of time points (of 5) at which kinase-Nluc abundance scored as decreased, DMSO-normalised (count); higher = more persistent destabilization; conditions: K562; 2-18 h

| Compound | number of time points |
| --- | --- |
| Cc1cc(=O)oc2c(C=O)c(O)ccc12 (10 µM) | 0 |
| Nc1nc(F)nc2c1ncn2[C@@H]1O[C@H](CO)[C@@H](O)[C@@H]1O [Fludarabine] (10 µM) | 0 |
| CC(C)(C)c1cc(O)ccc1O (10 µM) | 0 |
| COc1ccc(Cl)c(Nc2nc3ccccc3nc2NS(=O)(=O)c2cccc(NC(=O)C(C)(C)N)c2)c1 [Pilaralisib] (10 µM) | 0 |
| Cc1ccc(CNc2ncnc3ccc(-c4ccc(CO)o4)cc23)o1 (10 µM) | 0 |
| C=CC(=O)Nc1cccc(Nc2nc(Nc3ccc(N4CCN(C(C)=O)CC4)cc3OC)ncc2C(F)(F)F)c1 [Rociletinib] (10 µM) | 0 |
| Nc1ncnc2c1c(-c1cccc(OCc3ccccc3)c1)cn2C1CC(CN2CCC2)C1 (stereo not drawn) (2.5 µM) | 0 |
| Oc1cc(O)c2cc(O)c(-c3cc(O)c(O)c(O)c3)[o+]c2c1 [Delphinidin (chloride)] (10 µM) | 0 |
| CCCS(=O)(=O)Nc1ccc(F)c(C(=O)c2c[nH]c3ncc(-c4ccc(Cl)cc4)cc23)c1F [Vemurafenib] (10 µM) | 0 |
| COCCNc1nc2ccc(C#CC3(O)CCCCC3)cc2n1-c1ccnc(N)n1 (10 µM) | 0 |
| CCC(C)N1c2ccccc2C(=O)N(C)c2cnc(Nc3ccc(C(=O)N4CCC(N5CCN(C)CC5)CC4)cc3OC)nc21 (stereo not drawn) (2.5 µM) | 0 |
| Cc1cc(CN2CCN(c3c(Br)cnc4nc(-c5ccc(N6CCN(C)CC6)cc5)[nH]c34)CC2)no1 (2.5 µM) | 0 |
| O=C(CSC1=NCCN1)NC1CCCCCC1 [ICCB-19 (hydrochloride)] (2.5 µM) | 0 |

Retrieved by compound from the entries so far, two records:

| Compound | number of time points |
| --- | --- |
| CCC(C)N1c2ccccc2C(=O)N(C)c2cnc(Nc3ccc(C(=O)N4CCC(N5CCN(C)CC5)CC4)cc3OC)nc21 (stereo not drawn) (2.5 µM) | 0 |
| CC(C)(C)c1cc(O)ccc1O (10 µM) | 0 |
